Data on 3 molecules can be found in publication PMC10484675.

Protein sequences, listed by entry. Tags and fused reporters are not part of them.
UniProt Q06609: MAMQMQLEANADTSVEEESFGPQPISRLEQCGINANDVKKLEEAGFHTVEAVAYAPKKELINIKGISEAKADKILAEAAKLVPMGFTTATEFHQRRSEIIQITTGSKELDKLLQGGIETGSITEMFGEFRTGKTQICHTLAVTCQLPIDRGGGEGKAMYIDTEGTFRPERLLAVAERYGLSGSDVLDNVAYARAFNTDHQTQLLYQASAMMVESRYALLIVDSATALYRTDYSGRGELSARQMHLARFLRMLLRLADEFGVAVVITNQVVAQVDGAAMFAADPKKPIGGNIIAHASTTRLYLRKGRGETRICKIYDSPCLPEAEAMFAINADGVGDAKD

For experiment [1], the target named is T1, SFB-tagged wild-type FIGNL1 (human) (human) (UniProt Q6PIW4).
T1 sequence: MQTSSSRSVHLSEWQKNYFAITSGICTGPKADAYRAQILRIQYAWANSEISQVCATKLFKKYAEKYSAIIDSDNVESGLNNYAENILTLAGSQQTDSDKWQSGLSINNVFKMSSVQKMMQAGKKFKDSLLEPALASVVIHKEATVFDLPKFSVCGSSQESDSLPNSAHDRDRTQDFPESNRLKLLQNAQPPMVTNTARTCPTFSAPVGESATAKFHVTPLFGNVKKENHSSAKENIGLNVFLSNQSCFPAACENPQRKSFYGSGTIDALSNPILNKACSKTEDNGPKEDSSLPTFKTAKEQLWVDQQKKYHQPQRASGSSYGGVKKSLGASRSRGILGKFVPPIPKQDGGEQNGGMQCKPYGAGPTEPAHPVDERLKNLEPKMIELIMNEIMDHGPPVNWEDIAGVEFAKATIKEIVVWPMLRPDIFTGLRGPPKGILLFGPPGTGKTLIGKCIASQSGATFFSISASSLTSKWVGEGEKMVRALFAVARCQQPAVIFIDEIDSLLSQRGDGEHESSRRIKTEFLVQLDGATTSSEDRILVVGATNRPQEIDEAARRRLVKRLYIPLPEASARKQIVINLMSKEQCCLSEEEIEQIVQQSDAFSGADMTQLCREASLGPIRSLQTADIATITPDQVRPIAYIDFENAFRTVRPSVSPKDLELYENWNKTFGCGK
Description: affinity purification with mass spectrometry; Supplementary Figure S7A, called 'anti-FIGNL1 immunoprecipitant' in the text; taken as the tandem affinity purification of SFB-tagged human FIGNL1 from stable HEK293T cells told in the methods (4 mM HU 3 h, NETN buffer with benzonase).

Experiment [2] concerns the target T1, SFB-tagged wild-type FIGNL1 (human) (human). The experiment is described as above. This is another data set of the same source.
The target of experiment [3] is T2, SFB-tagged wild-type FLIP (human) (human) (UniProt Q9NSG2).
T2 sequence: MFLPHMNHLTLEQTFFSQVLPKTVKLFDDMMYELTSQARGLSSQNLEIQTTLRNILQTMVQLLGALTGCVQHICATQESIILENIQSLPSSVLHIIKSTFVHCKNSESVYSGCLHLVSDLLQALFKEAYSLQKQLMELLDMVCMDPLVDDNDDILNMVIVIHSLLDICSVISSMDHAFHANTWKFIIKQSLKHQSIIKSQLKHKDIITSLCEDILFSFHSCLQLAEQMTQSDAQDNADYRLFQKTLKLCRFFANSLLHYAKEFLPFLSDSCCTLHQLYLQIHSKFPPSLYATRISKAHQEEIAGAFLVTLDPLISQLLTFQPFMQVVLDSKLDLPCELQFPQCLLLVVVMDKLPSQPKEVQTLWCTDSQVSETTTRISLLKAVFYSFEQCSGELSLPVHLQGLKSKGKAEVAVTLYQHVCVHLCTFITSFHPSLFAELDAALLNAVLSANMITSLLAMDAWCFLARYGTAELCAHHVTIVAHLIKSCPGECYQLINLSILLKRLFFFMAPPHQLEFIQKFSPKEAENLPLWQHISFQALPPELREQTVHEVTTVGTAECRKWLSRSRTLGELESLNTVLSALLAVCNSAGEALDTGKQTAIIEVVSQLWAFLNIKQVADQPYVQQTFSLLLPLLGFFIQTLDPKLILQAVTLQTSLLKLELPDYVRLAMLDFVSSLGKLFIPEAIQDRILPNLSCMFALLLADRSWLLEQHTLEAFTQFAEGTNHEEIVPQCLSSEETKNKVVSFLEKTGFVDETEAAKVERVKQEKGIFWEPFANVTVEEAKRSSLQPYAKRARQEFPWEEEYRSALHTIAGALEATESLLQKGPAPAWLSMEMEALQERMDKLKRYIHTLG
Nature of the experiment: affinity purification with mass spectrometry; tandem affinity purification (streptavidin-sepharose, biotin elution, S-protein beads) of SFB-tagged human FLIP from stable HEK293T cells treated with 4 mM HU for 3 h; NETN buffer with benzonase; bands analysed by mass spectrometry.

Where two headings read alike, the source gives them in different places. No constants are given. Whether binding was seen depends on the method and setting. Binding seen in cells or lysates may run through a third protein. A yes stands for co-enrichment or nearness to the bait. Other partners may have been found. Tags and fused reporters may be left off the sequences shown.

Consider “RAD51 (endogenous, human HEK293T cells) (from UniProt Q06609 1-339)”, for which, in experiment [1], the binding result is given as “binds”.

B1: FLIP (endogenous, human HEK293T cells) (protein, UniProt Q9NSG2 1-853)
chain: MFLPHMNHLTLEQTFFSQVLPKTVKLFDDMMYELTSQARGLSSQNLEIQTTLRNILQTMVQLLGALTGCVQHICATQESIILENIQSLPSSVLHIIKSTFVHCKNSESVYSGCLHLVSDLLQALFKEAYSLQKQLMELLDMVCMDPLVDDNDDILNMVIVIHSLLDICSVISSMDHAFHANTWKFIIKQSLKHQSIIKSQLKHKDIITSLCEDILFSFHSCLQLAEQMTQSDAQDNADYRLFQKTLKLCRFFANSLLHYAKEFLPFLSDSCCTLHQLYLQIHSKFPPSLYATRISKAHQEEIAGAFLVTLDPLISQLLTFQPFMQVVLDSKLDLPCELQFPQCLLLVVVMDKLPSQPKEVQTLWCTDSQVSETTTRISLLKAVFYSFEQCSGELSLPVHLQGLKSKGKAEVAVTLYQHVCVHLCTFITSFHPSLFAELDAALLNAVLSANMITSLLAMDAWCFLARYGTAELCAHHVTIVAHLIKSCPGECYQLINLSILLKRLFFFMAPPHQLEFIQKFSPKEAENLPLWQHISFQALPPELREQTVHEVTTVGTAECRKWLSRSRTLGELESLNTVLSALLAVCNSAGEALDTGKQTAIIEVVSQLWAFLNIKQVADQPYVQQTFSLLLPLLGFFIQTLDPKLILQAVTLQTSLLKLELPDYVRLAMLDFVSSLGKLFIPEAIQDRILPNLSCMFALLLADRSWLLEQHTLEAFTQFAEGTNHEEIVPQCLSSEETKNKVVSFLEKTGFVDETEAAKVERVKQEKGIFWEPFANVTVEEAKRSSLQPYAKRARQEFPWEEEYRSALHTIAGALEATESLLQKGPAPAWLSMEMEALQERMDKLKRYIHTLG
With B1, the binding entry in experiment [2] was “binds”.

B2: FIGNL1 (endogenous, human HEK293T cells) (protein, UniProt Q6PIW4 1-674)
chain: MQTSSSRSVHLSEWQKNYFAITSGICTGPKADAYRAQILRIQYAWANSEISQVCATKLFKKYAEKYSAIIDSDNVESGLNNYAENILTLAGSQQTDSDKWQSGLSINNVFKMSSVQKMMQAGKKFKDSLLEPALASVVIHKEATVFDLPKFSVCGSSQESDSLPNSAHDRDRTQDFPESNRLKLLQNAQPPMVTNTARTCPTFSAPVGESATAKFHVTPLFGNVKKENHSSAKENIGLNVFLSNQSCFPAACENPQRKSFYGSGTIDALSNPILNKACSKTEDNGPKEDSSLPTFKTAKEQLWVDQQKKYHQPQRASGSSYGGVKKSLGASRSRGILGKFVPPIPKQDGGEQNGGMQCKPYGAGPTEPAHPVDERLKNLEPKMIELIMNEIMDHGPPVNWEDIAGVEFAKATIKEIVVWPMLRPDIFTGLRGPPKGILLFGPPGTGKTLIGKCIASQSGATFFSISASSLTSKWVGEGEKMVRALFAVARCQQPAVIFIDEIDSLLSQRGDGEHESSRRIKTEFLVQLDGATTSSEDRILVVGATNRPQEIDEAARRRLVKRLYIPLPEASARKQIVINLMSKEQCCLSEEEIEQIVQQSDAFSGADMTQLCREASLGPIRSLQTADIATITPDQVRPIAYIDFENAFRTVRPSVSPKDLELYENWNKTFGCGK
Turning to B2, in experiment [3], the binding entry is listed as “binds”.
